Literature values as cited in publication PMC6920949, “Muscle to Brain Partitioning as Measure of Transporter-Mediated Efflux at the Rat Blood–Brain Barrier and Its Implementation into Compound Optimization in Drug Discovery” (Pharmaceutics, 2019).

Details: compounds without blood-brain barrier efflux; cited from earlier work

In the case of `CN1C(=O)CN=C(c2ccccc2)c2cc(Cl)ccc21` [diazepam], the “distribution into brain and skeletal muscle” value is listed as “very similar distributions into brain and skeletal muscle”.
